Measurements reported in patent publication US20240067738A1.
These are yes or no findings as the source states them, for the method shown. Some entries that bind do so weakly or less than the wild type.

T1: canine IL4R (Examples 16, 18 and 19; construct not stated) (canine)
T1 sequence (chain, biotinylated; sites not stated): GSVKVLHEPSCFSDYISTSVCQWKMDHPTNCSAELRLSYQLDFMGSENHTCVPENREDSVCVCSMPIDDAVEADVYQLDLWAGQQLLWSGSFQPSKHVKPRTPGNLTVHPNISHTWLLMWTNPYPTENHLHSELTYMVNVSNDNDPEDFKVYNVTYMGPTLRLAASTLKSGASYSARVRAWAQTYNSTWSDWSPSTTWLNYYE


Biological target: T1, canine IL4R (Examples 16, 18 and 19; construct not stated) (canine)
Experiment: neutralization (canine IL4-blocking) ELISA

binding	Binder
binds	M3 mouse monoclonal antibody (antibody, V domains shown) VH: QVQLKESGPGLVAPSQSLSITCTVSGFSLSRYSVHWVRQPPGKGLEWLGMIWGGGSTDYNSVFKSRLSISKDNSKSQVFLKMNSLQTDDTAMYYCARTYRGYALDYWGQGTSVTVSS VL: DIQMTQTTSSLSASLGDRVTISCRASQDISNYLNWYQQKPDGTVKLLIYYTSRLQSGVPSRFSGSGSGTDYCLTISNLEQEDIATYFCQQANTLPLTFGSGTKLELK
binds	M5 mouse monoclonal antibody (antibody, V domains shown) VH: QVQLKESGPGLVAPSQSLSITCTVSGFSLSRYSVHWVRQPPGKGLEWLGMIWGGGSTDYNSVFKSRLSISKDNSKSQVFLKMNSLQTDDTAMYYCARTYRGYALDYWGQGTSVTVSS VL: DIQMTQTTSSLSASLGDRVTISCRASQDISNYLNWYQQKPDGTVKLLIYYTSRLQSGVPSRFSGSGSGTDYCLTISNLEQEDIATYFCQQANTLPLTFGSGTKLELK
binds	M9 mouse monoclonal antibody (antibody, V domains shown) VH: DVQLVESGGGLVQPGGSRKLSCAASGFTFSSFGMHWVRQAPEKGLEWVAYIRSDSSTIYYADTVKGRFTISRDNPKNTLFLQMTSLRSEDTAMYYCARSGYYGSFSLTYWGQGTLVTVSA VL: EIVLTQSPTTMAASPGEKITITCSASSSVSSNYLHWYQQKPGFSPKLLIYRTSNLPSGVPARFFGSGSGTSYSLTIGTMEAEDVATYYCQQGSGMLTFGAGTKLELK
binds	M8 mouse monoclonal antibody (antibody, V domains shown) VH: QVQLQQSGPELVKPGALVKISCKASGYTFTSYDINWVKQRPGQGLEWIGWIYPGDGSTKYNEKFKGKATLTADKSSSTAYMQLSSLTSEDSAVYFCARSSFVVWGAGTTVTVSS VL: DIQMTQSSSYLSVSLGGRVTITCKASDPINNWLAWYQQKPGNAPRLLISGATSLETGVPSRISGSGSGKDYSLSITSLQTEDIATYYCHQYWSIPYTFGGGTKLEIK
